Measurements published in US10865191B2, “Heterocyclic compounds useful as modulators of TNF alpha” (BRISTOL-MYERS SQUIBB COMPANY, priority 2015, dated 2020).
Counter-ions that a name gives are not always drawn. Like-named read-outs stand apart in the source and are kept apart here. Some entries share one result that the patent states for a list of compounds.

The chains behind the UniProt entries cited, without tags or fusion partners. Residues count along the entry.
UniProt P01375, 77-233 limits assumed: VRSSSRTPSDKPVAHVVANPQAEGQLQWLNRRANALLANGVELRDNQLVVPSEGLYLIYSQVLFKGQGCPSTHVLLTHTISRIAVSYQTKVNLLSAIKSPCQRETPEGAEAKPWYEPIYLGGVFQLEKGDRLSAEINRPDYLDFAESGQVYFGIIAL

Target: TNFα (Homo sapiens, UniProt P01375)
Experiment: TNF induced HEK-Blue assay (NF-kB-driven secreted alkaline phosphatase reporter)
Type: cell-based
In short: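 HEK-Blue-CD40L cells (NF-kB-driven SEAP reporter), 20,000/well, added after 30 min pre-incubation of compound (0.004–25 μM final) with TNFα 0.5 ng/mL final at 37 °C; 18 h incubation. SEAP read with QUANTI-Blue at 620 nm; IC50 from 4-parameter logistic fit, normalized to unstimulated and stimulated DMSO controls.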

[1] = TNFα 0.5 ng/mL, HEK-Blue-CD40L cells, 18 h; read-out: IC50 values measured in the TNF induced HEK-Blue assay
[2] = read-out: IC50 values measured in the TNF induced HEK-Blue assay; TNFα 0.5 ng/mL, HEK-Blue-CD40L cells, 18 h

IC50 [1] [µM]	IC50 [2] [µM]	SMILES
≤ 25		CC(C)(O)c1ncc(-c2nc3c(N[C@H](c4cc(C(=O)O)ccc4F)C(F)F)c(Cl)cnc3cc2F)cn1 [Example 485, (R)-3-(1-((3-chloro-7-fluoro-6-(2-(2-hydroxypropan-2-yl)pyrimidin-5-yl)-1,5-naphthyridin-4-yl)amino)-2,2-difluoroethyl)-4-fluorobenzoic acid]
≤ 25		CC(Nc1c(Cl)cnc2cc(F)c(-c3ccc(C(O)CN4CCOCC4)cc3)cc12)c1ccccc1F (centres unmarked) [Example 288, 1-(4-(3-chloro-7-fluoro-4-((1-(2-fluorophenyl)ethyl)amino)quinolin-6-yl)phenyl)-2-morpholinoethan-1-ol]
≤ 25		C[C@@H](Nc1c(Cl)cnc2ccc(-c3cnc(C(C)(C)O)nc3)cc12)c1cc(-c2c[nH]nn2)ccc1F [Example 419, (R)-2-(5-(3-chloro-4-((1-(2-fluoro-5-(1H-1,2,3-triazol-4-yl)phenyl)ethyl)amino)quinolin-6-yl)pyrimidin-2-yl)propan-2-ol]
≤ 25		C[C@@H](Nc1c(Cl)cnc2ccccc12)c1cc(-c2cnc(C3CC3)nc2)ccc1F [Example 519, (R)-3-chloro-N-(1-(5-(2-cyclopropylpyrimidin-5-yl)-2-fluorophenyl)ethyl) quinolin-4-amine]
≤ 25		C[C@@H](Nc1c(Cl)cnc2ccc(-c3cnc(C(C)(C)O)nc3)cc12)c1cc(C=NO)ccc1F [Example 424, (R)-3-(1-((3-chloro-6-(2-(2-hydroxypropan-2-yl)pyrimidin-5-yl)quinolin-4-yl)amino)ethyl)-4-fluorobenzaldehyde oxime]
≤ 25		CC(=O)NC(C)(C)c1ccc(-c2ccc3ncc(Cl)c(NC(C)c4ccccc4F)c3c2)cc1 (centres unmarked) [Example 592, N-(2-(4-(3-chloro-4-((1-(2-fluorophenyl)ethyl)amino)quinolin-6-yl)phenyl)propan-2-yl)acetamide]
	≤ 25	CC(Nc1c(Cl)cnc2ccc(-c3cnc(C(C)(C)O)nc3)cc12)c1ccccc1C(F)(F)F (racemic) [Example 151, 2-(5-(3-chloro-4-((1-(2-(trifluoromethyl)phenyl)ethyl)amino)quinolin-6-yl)pyrimidin-2-yl)propan-2-ol]
≤ 25		C[C@@H](Nc1c(Cl)cnc2cc(F)c(-c3cnc(C(C)(C)O)nc3)nc12)c1cccc(C#N)c1 [Example 588, (R)-3-(1-((3-chloro-7-fluoro-6-(2-(2-hydroxypropan-2-yl)pyrimidin-5-yl)-1,5-naphthyridin-4-yl)amino)ethyl)benzonitrile]
≤ 25		Cc1nc2ccc(-c3cnc(C(C)(C)O)nc3)cc2c(N[C@H](C)c2cc(C(C)(C)O)ccc2F)c1Cl [Example 408, (R)-2-(5-(3-chloro-4-((1-(2-fluoro-5-(2-hydroxypropan-2-yl)phenyl)ethyl)amino)-2-methylquinolin-6-yl)pyrimidin-2-yl)propan-2-ol, TFA Salt]
≤ 25		C[C@@H](Nc1c(Cl)cnc2ccc(-c3cnn(C)c3)cc12)c1cc(-c2cncnc2)ccc1F [Example 550, (R)-3-chloro-N-(1-(2-fluoro-5-(pyrimidin-5-yl)phenyl)ethyl)-6-(1-methyl-1H-pyrazol-4-yl)quinolin-4-amine]
≤ 25		C=CCOc1ccc(F)c([C@@H](C)Nc2c(Cl)cnc3ccccc23)c1 [Example 457, (R)—N-(1-(5-(allyloxy)-2-fluorophenyl)ethyl)-3-chloroquinolin-4-amine]
	≤ 25	CC(Nc1c(Cl)cnc2ccc(-c3cnc(C(C)(C)O)nc3)c(Cl)c12)c1ccccc1F (racemic) [Example 296, 2-(5-(3,5-dichloro-4-((1-(2-fluorophenyl)ethyl)amino)quinolin-6-yl)pyrimidin-2-yl)propan-2-ol]
≤ 25		Cc1ccc(C)c(Nc2c(F)c(C)nc3ccc(-c4cnc(C(C)(C)O)nc4)cc23)c1 [Example 183, 2-(5-(4-((2,5-dimethylphenyl)amino)-3-fluoro-2-methylquinolin-6-yl)pyrimidin-2-yl)propan-2-ol]
≤ 25		CC(C)(O)c1ncc(-c2nc3c(N[C@@H](c4cc(C#N)ccc4F)C(F)F)c(Cl)cnc3cc2F)cn1 [Example 498, (S)-3-(1-((3-chloro-7-fluoro-6-(2-(2-hydroxypropan-2-yl)pyrimidin-5-yl)-1,5-naphthyridin-4-yl)amino)-2,2-difluoroethyl)-4-fluorobenzonitrile]
≤ 25		Cc1ccc(C)c(Nc2c(Cl)c(C(=O)Nc3ccccc3)nc3ccc(-c4ccc(C#N)nc4)cc23)c1 [Example 35, 3-chloro-6-(6-cyanopyridin-3-yl)-4-((2,5-dimethylphenyl)amino)-N-phenylquinoline-2-carboxamide]
≤ 25		Cc1nc2ccc(-c3cnc(C(C)(C)O)nc3)cc2c(N[C@H](C)c2cc(C#N)ccc2F)c1Cl [Example 375, (R)-3-(1-((3-chloro-6-(2-(2-hydroxypropan-2-yl)pyrimidin-5-yl)-2-methylquinolin-4-yl)amino)ethyl)-4-fluorobenzonitrile]

IC50 [1] [µM]	IC50 [2] [µM]	SMILES
≤ 25		Cc1nc2ccc(-c3cnc(C(C)(C)O)nc3)cc2c(N[C@@H](c2cc(C#N)ccc2F)C(F)F)c1Cl [Example 380, (S)-3-(1-((3-chloro-6-(2-(2-hydroxypropan-2-yl)pyrimidin-5-yl)-2-methylquinolin-4-yl)amino)-2,2-difluoroethyl)-4-fluorobenzonitrile]
≤ 25		Cc1nc2ccc(-c3cnc(N4CCN(CC(=O)O)CC4)nc3)cc2c(N[C@H](C)c2cc(C(N)=O)ccc2F)c1Cl [Example 389, (R)-2-(4-(5-(4-((1-(5-carbamoyl-2-fluorophenyl)ethyl)amino)-3-chloro-2-methylquinolin-6-yl)pyrimidin-2-yl)piperazin-1-yl)acetic acid]
≤ 25		CC(Nc1c(Cl)cnc2ccc(-c3ccc(C(C)(C)O)cc3)cc12)c1ncccn1 (racemic) [Example 177, 2-(4-(3-chloro-4-((1-(pyrimidin-2-yl)ethyl)amino)quinolin-6-yl)phenyl)propan-2-ol]
≤ 25		C[C@@H](Nc1c(Cl)cnc2ccc(-c3cnc(C(C)(C)O)nc3)cc12)c1cc(N2CCNC2=O)ccc1F [Example 370, (R)-1-(3-(1-((3-chloro-6-(2-(2-hydroxypropan-2-yl)pyrimidin-5-yl)quinolin-4-yl)amino)ethyl)-4-fluorophenyl)imidazolidin-2-one]
≤ 25		CCOC(=O)C1CCN(c2ncc(-c3cc4c(NC(C)c5ccccc5F)c(Cl)cnc4cc3F)cn2)CC1 (single isomer, unassigned) [Example 243, ethyl-1-(5-(3-chloro-7-fluoro-4-((1-(2-fluorophenyl)ethyl)amino)quinolin-6-yl)pyrimidin-2-yl)piperidine-4-carboxylate]
≤ 25		CC(Nc1c(Cl)cnc2cc(F)c(-c3cnc(N4CCC(CC(=O)O)CC4)nc3)cc12)c1ccccc1F (racemic) [Example 266, 2-(1-(5-(3-chloro-7-fluoro-4-((1-(2-fluorophenyl)ethyl)amino)quinolin-6-yl)pyrimidin-2-yl)piperidin-4-yl)acetic acid]
≤ 25		Cc1nc2ccc(-c3cnc(C(C)(C)O)nc3)cc2c(NC(C)c2ccccc2F)c1Cl (racemic) [Example 218, 2-(5-(3-chloro-4-((1-(2-fluorophenyl)ethyl)amino)-2-methylquinolin-6-yl)pyrimidin-2-yl)propan-2-ol]
≤ 25		COc1nc2ccc(-c3cnc(C(C)(C)O)nc3)cc2c(Nc2cc(C)ccc2C)c1C [Example 180, 2-(5-(4-(2,5-dimethylphenylamino)-2-methoxy-3-methylquinolin-6-yl)pyrimidin-2-yl)propan-2-ol]
≤ 25		C[C@@H](Nc1c(Cl)cnc2ccccc12)c1cc(-c2cn[nH]c2)ccc1F [Example 455, (R)-3-chloro-N-(1-(2-fluoro-5-(1H-pyrazol-4-yl)phenyl)ethyl)quinolin-4-amine]
≤ 25		CCOC(=O)c1nc2ccc(-c3ccc(C#N)nc3)cc2c(Nc2cc(C)ccc2C)c1Cl [Example 5, ethyl 3-chloro-6-(6-cyanopyridin-3-yl)-4-((2,5-dimethylphenyl)amino)quinoline-2-carboxylate]
≤ 25		C=CC[C@@H](Nc1c(Cl)cnc2ccc(-c3cnc(C(C)(C)O)nc3)cc12)c1cc(Cl)ccn1 [Example 63, (R)-2-(5-(3-chloro-4-((1-(4-chloropyridin-2-yl)but-3-en-1-yl)amino)quinolin-6-yl)pyrimidin-2-yl)propan-2-ol]
≤ 25		C[C@@H](Nc1c(Cl)cnc2ccc(-c3cnc(C(C)(C)O)nc3)cc12)c1cc(-n2cnnc2)ccc1F [Example 371, (R)-2-(5-(3-chloro-4-((1-(2-fluoro-5-(4H-1,2,4-triazol-4-yl)phenyl)ethyl)amino)quinolin-6-yl)pyrimidin-2-yl)propan-2-ol]
≤ 25		CCC(Nc1c(Cl)cnc2ccc(-c3cnc(C(C)(C)O)nc3)cc12)c1nc(C(=O)O)ccc1F (centres unmarked) [Example 128, 6-(1-((3-chloro-6-(2-(2-hydroxypropan-2-yl)pyrimidin-5-yl)quinolin-4-yl)amino)propyl)-5-fluoropicolinic acid]
≤ 25		CCN1CCC[C@H]([C@H](C)Nc2c(Cl)cnc3ccc(-c4cnc(C(C)(C)O)nc4)cc23)C1 [Example 105, 2-(5-(3-chloro-4-(((S)-1-((S)-1-ethylpiperidin-3-yl)ethyl)amino)quinolin-6-yl)pyrimidin-2-yl)propan-2-ol]
≤ 25		C[C@@H](Nc1c(Cl)cnc2ccccc12)c1cc(-c2ccnc3[nH]ccc23)ccc1F [Example 525, (R)-3-chloro-N-(1-(2-fluoro-5-(1H-pyrrolo[2,3-b]pyridin-4-yl)phenyl)ethyl) quinolin-4-amine]
≤ 25		C[C@@H](Nc1c(Cl)cnc2ccccc12)c1cc(-c2cncc(C#N)c2)ccc1F [Example 541, (R)-5-(3-(1-((3-chloroquinolin-4-yl)amino)ethyl)-4-fluorophenyl)nicotinonitrile]
